Publication PMC7260847
For at least one entry, the source does not settle the construct or the ends of the probe. Results from cells or extracts need not show a direct contact.

Test system: NCgl0581 (LysR-type transcriptional regulator of serE)
Assay: EMSA
Conditions: Viagene non-radioactive EMSA kit with biotin probes, per manufacturer's instructions; pH and temperature not stated; protein in an extract

## AAACAGCCAACTATAGTTAAGTAATA (double strand) [BIO-JNZXM-TP/BIO-JNZXM-BM (serE upstream region probe)]
  binding result: binds
